By AC50 is commonly meant the concentration giving half of the maximal activity seen.

The other results are listed elsewhere or left out. The main result of the screen is listed elsewhere. These columns were measured beside it and carry no call. The list favours compounds with an active or inconclusive main result. Words in brackets tell the shape of the fitted curve; partial curves, single points and poor fits give uncertain potencies.

The source of these data is PubChem BioAssay AID662 (National Center for Advancing Translational Sciences (NCATS), 2007).

The assay is described as follows: Cell signaling CRE-BLA (Fsk stim). The conditions noted are these: CHO CRE-bla reporter (cAMP response element driving beta-lactamase), forskolin EC10, beta-lactamase ratio; measured here: 460 nm blue channel. The essentials: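 CHO CRE-bla cells, overnight plating in Opti-MEM with 0.5% dialyzed FBS; cpd titration + EC10 NKH 477, 3 h 37 °C; CCF4 2 h RT; ex 405/em 460 vs 530 ratio → %Activity, AC50.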
In the case of `N#Cc1cccc(-c2nc(N3CCNCC3)c3ccccc3n2)c1`, the AC50 was 12.6 µM [rising, single point]. Under `COc1ccc(C2CC(=O)N3CN(c4ccccc4F)CSC3=C2C#N)cc1OC` (configuration not stated) stands 10 µM [rising, single point]. Under `CCOc1ccc(CC(=O)Nc2c(C(N)=O)oc3ccccc23)cc1OCC` stands 7.94 µM [rising, partial curve]. For `CC(=O)N1CCc2cc(Br)cc(S(=O)(=O)N3CCN(C(=O)c4ccco4)CC3)c21`, the half-maximal activity concentration (AC50) is 15.8 µM [rising, single point]. As for `C=CCN(CC=C)S(=O)(=O)c1ccc2nc(NC(=O)C(C)C)sc2c1`, the AC50 is 10 µM [rising, partial curve]. In the case of `Cc1nc2ccccc2n2c(O)c(CC(=O)O)cc12` it was 20 µM [rising, single point].

`CCCCCCn1cnc2c(c1=O)c1nc3ccccc3nc1n2Cc1cccs1`: the AC50 is 20 µM [rising, single point].

As to `COc1ccc(Oc2ncc3nc(C)c(=O)n(C[C@H]4CCCO4)c3n2)cc1`, the AC50 was 12.6 µM [rising, partial curve]. Under `O=C(Nc1nc(-c2ccccc2)cs1)C1CCCCN1S(=O)(=O)c1ccccc1` (configuration not stated) stands 3.98 µM [falling, partial curve]; under `O=C(NCC1CCCO1)C1CCCN(Cc2cnn(-c3ccccc3)c2-n2cccc2)C1` (configuration not stated), 10 µM [rising, partial curve]. In the case of `Cc1ccc(NC(=O)CSc2nnc(CCCCCNC(=O)OC(C)(C)C)o2)c(C)c1` it was 3.98 µM [falling, full curve, poor fit]; in that of `O=C(Nc1ccc2c(c1)OCO2)c1cccc2c1C(=O)N(Cc1cccnc1)C2`, 10 µM [rising, partial curve]; in that of `CC(=O)NCCNc1nc(-c2c(C)noc2C)nc2ccccc12`, 7.94 µM [rising, partial curve]. Under `CCOC(=O)c1sc(NC(C)=O)c(C(=O)OCC)c1C` stands 12.6 µM [rising, partial curve]; under `COc1cccc(OC)c1C(=O)Nc1ccccc1C(=O)N1CCOCC1`, 12.6 µM [rising, single point]. For `CCOC(=O)c1[nH]c2ccc(OC)cc2c1NC(=O)CN1CCSCC1`, the half-maximal activity concentration (AC50) is 10 µM [rising, single point]. In the case of `Cc1ccc(-c2nc3ncccc3o2)cc1NC(=O)Cc1ccc(Cl)cc1` it was 0.00398 µM [falling, full curve, poor fit]. Under `CC(C)(C)N1C(=O)Cc2c1nc(N)c1c(N)nc(N3CCCCC3CO)c(C#N)c21` (configuration not stated) stands 2.51 µM [rising, full curve]. Under `OCCNc1cc(-n2nc(-c3ccccc3)cc2-c2ccccc2)ncn1` stands 1 µM [falling, partial curve]. For `COc1ccc(C2/C(=C(/O)c3ccc(Cl)cc3)C(=O)C(=O)N2CCN2CCOCC2)c(OC)c1` (configuration not stated), the AC50 is 2.51 µM [rising, partial curve]. In the case of `Cc1cc(=O)[nH]c(SCc2cccc(Br)c2)n1`, the AC50 is 0.00316 µM [falling, full curve, poor fit]. In the case of `CCOC(=O)c1ccc(Cn2cnc3ccccc3c2=O)cc1` it was 15.8 µM [rising, single point]; in that of `CCOC(=O)c1ccc(S(=O)(=O)n2c(CN3CCCCC3)nc3ccccc32)cc1`, 3.16 µM [rising, single point]. On to `Clc1ccc(CSc2nnc(-c3ccncc3)o2)c(Cl)c1`, for which the AC50 was 12.6 µM [rising, single point].

As to `O=C(CN1C(=O)CCC1=O)Nc1ccc2c3c(cccc13)CC2`, the AC50 is 5.01 µM [falling, single point]. As to `Cc1ccc2cc(C#N)c(NCCNC(=O)C3CCC3)nc2c1C`, the AC50 was 12.6 µM [rising, partial curve]. In the case of `Cc1occc1C(=O)N1CCN(c2ncccn2)CC1` it was 0.2 µM [rising, partial curve]; in that of `COCCn1c(=O)c(-c2cn(C)c3ccccc23)nc2cnc(Oc3ccccc3)nc21`, 2.51 µM [rising, full curve]; in that of `COC(=O)N1[C@H](C)C=C[C@]1(Cc1ccccc1)C(=O)NCc1ccc(C)o1`, 20 µM [falling, partial curve, poor fit]. In the case of `CCOc1ccc2nc(NC(=O)C3CCN(c4cnccn4)CC3)sc2c1` it was 10 µM [rising, partial curve]; in that of `[O-][n+]1onc2c1CCc1c-2nn(-c2ccccc2Cl)[n+]1[O-]`, 12.6 µM [falling, partial curve]; in that of `CCOc1ccc(N2C(=O)c3ccccc3C2O)cc1` (configuration not stated), 25.1 µM [falling, single point]. For `NC(=O)CC12CC3CC(C1)CC(CC(N)=O)(C3)C2`, the half-maximal activity concentration (AC50) is 0.794 µM [falling, full curve, poor fit].

For the compound `COC(=O)c1c(NC(=O)C2CC2)sc2c1CCN(C(C)=O)C2`, the AC50 was 10 µM [rising, partial curve]. `CCOC(=O)c1c(NC(=O)OC)sc(C(=O)N(C)C)c1C`: the AC50 was 3.16 µM [rising, partial curve].

For the compound `CN(C1=NC(=O)C(CC(=O)Nc2ccc(Br)cc2)S1)c1ccc(O)cc1` (configuration not stated), the half-maximal activity concentration (AC50) is 25.1 µM [rising, single point]. In the case of `CC1(C)C2CCC1(CS(=O)(=O)NCc1ccc(C(=O)O)cc1)C(=O)C2` (configuration not stated) it was 5.01 µM [falling, single point]. In the case of `CCOC(=O)N1CCN(C(=O)c2ccc3c(=O)n(CCC4=CCCCC4)c(=O)[nH]c3c2)CC1` it was 1 µM [rising, partial curve]; in that of `COc1ccccc1N(CC(=O)Nc1ccccc1C)S(C)(=O)=O`, 1.26 µM [falling, partial curve]. For the compound `CNc1nc(N2CCc3ccccc32)ncc1F`, the concentration at half-maximal activity (AC50) is 25.1 µM [rising, single point]. In the case of `O=C(CN1C(=O)c2ccccc2S1(=O)=O)NCc1ccccn1` it was 12.6 µM [falling, single point]; in that of `Clc1ccccc1-c1ccc2ncnc(NC3CCNCC3)c2c1`, 7.94 µM [rising, partial curve]. In the case of `CCN=c1scc(-c2ccc3c(c2)NC(=O)CO3)n1N=C1CCCC1` it was 0.398 µM [falling, single point]; in that of `Cc1ccc(Nc2cc(C)nc3nnnn23)cc1`, 0.631 µM [falling, partial curve].

As to `Cc1ccc(C)c(-n2c(SCC(N)=O)nnc2-c2ccccn2)c1`, the AC50 is 10 µM [rising, partial curve].

Turning to `CN(C)C(=O)c1ccc(-c2ccc3ncnc(N4CCNCC4)c3c2)cc1`, the AC50 was 10 µM [rising, single point]. Regarding `CC1Cc2ccccc2N1S(=O)(=O)c1cccc(C(=O)OCC(=O)NC2CCS(=O)(=O)C2)c1` (configuration not stated), the AC50 was 25.1 µM [rising, single point]. As for `CCOC(=O)c1cccc(NC(=O)CCc2c(C)nc3ncnn3c2C)c1`, the AC50 is 25.1 µM [rising, single point]. With `COc1ccc(NC(=O)CSc2nc3ccccc3c(=O)n2CCNC(C)=O)c(OC)c1`, the AC50 is 6.31 µM [rising, partial curve, poor fit]. For `CCOC(=O)c1[nH]c(C)c(C(=O)Nc2ccccc2F)c1C`, the concentration at half-maximal activity (AC50) was 12.6 µM [rising, partial curve]. In the case of `COc1ccc(CCCc2nnc(SCC(=O)Nc3ncc(C)s3)o2)cc1` it was 10 µM [rising, partial curve]; in that of `O=C(c1cccc(S(=O)(=O)N2CCCCC2)c1)N1CCCCC1`, 0.00398 µM [falling, full curve, poor fit].

Consider `O=c1c(-c2cccs2)nc2cnc(N3CCOCC3)nc2n1Cc1ccc(F)cc1`, for which the AC50 is 0.631 µM [rising, full curve].

Consider `O=C(COC(=O)C1=COCCO1)Nc1ccccc1Oc1ccccc1`, for which the AC50 was 0.251 µM [falling, partial curve]. Under `Cc1nc(NC(=O)CSc2nc3cccnc3n2Cc2ccccc2)sc1C` stands 2.51 µM [rising, full curve]; under `COc1ccc(S(=O)(=O)NC(CC(=O)N2CCc3ccccc32)c2ccco2)cc1` (configuration not stated), 5.01 µM [falling, single point]; under `O=C(Cn1cnc2sc(-c3ccccc3)cc2c1=O)N1CCOCC1`, 12.6 µM [rising, single point]. As for `Cc1cnc(CNc2ccnc(-c3ccccc3Cl)n2)cn1`, the AC50 was 7.94 µM [rising, partial curve]. In the case of `COc1ccc(-c2cc(C(=O)NCC(C)C)no2)cc1` it was 0.00398 µM [falling, full curve, poor fit]. In the case of `CCOc1cc(C(=O)CSc2nnc(CNc3ccc(Cl)cc3)o2)ccc1NC(=O)CC` it was 25.1 µM [falling, single point]; in that of `COCCSc1nc2c(c(=O)[nH]c(=O)n2C)n1Cc1cccc(C)c1`, 15.8 µM [rising, partial curve]; in that of `N=C(N)SCCc1ccccn1`, 5.01 µM [rising, single point]. For the compound `c1cn(-c2ccnc(-c3ccc4c(c3)OCO4)n2)cn1`, the AC50 was 10 µM [rising, partial curve]. Under `COc1ccc(NC(=O)CSc2nc3c(c(=O)n2-c2ccccc2)SCC3)c(OC)c1` stands 2.51 µM [rising, full curve]; under `Cc1cccc(-n2nnc(C(=O)NCc3ccc4c(c3)OCO4)c2N)c1`, 3.16 µM [rising, single point]; under `CC1=C(C(=O)Nc2cccc(C)n2)C(c2ccc3c(c2)OCO3)C2=C(CC(c3ccco3)CC2=O)N1` (configuration not stated), 10 µM [rising, partial curve]. Under `CC1CCCCC1NS(=O)(=O)c1ccc(S(=O)(=O)N2CCCC2)cc1` (configuration not stated) stands 12.6 µM [rising, partial curve].
